# Reference: the supplement of paper PMC8728848
# This is one part of the list.
# B1: Wzz (Escherichia coli) (protein)
# chain: MRTWKFPSVRVMMRVENNNVSGQNHDPEQIDLIDLLVQLWRGKMTIIISVIVAIVLAIGYLAVAKEKWTSTAIITQPDVGQIAGYNNAMNVIYGQAAPKVSDLQETLIGRFSSAFSALAETLDNQEEPEKLTIEPSVKNQQLPLTVSYVGQTAEGAQMKLAQYIQQVDDKVNQELEKDLKDNIALGRKNLQDSLRTQEVVAQEQKDLRIRQIQEALQYANQAQVTKPQIQQTGEDITQDTLFLLGSEALESMIKHEATRPLVFSSNYYQTRQNLLDIDNLDVDKLDIHAYLYVMKPTLPIRRDSPKKAITLILAVLLGGMVGAGIVLGRNALRNYNAK
# Experiments:
# Assay in all cases: glycan array binding signal (z-score within array); higher = stronger binding
# Details in all cases: glycan notation: IUPAC condensed, linker removed
# [1] = molecular target: GlcNAc(b1-2)Gal(b1-3)GalNAc
# In short: (§1)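 Columns mapping to the same glycan were averaged after glycan names were converted to IUPAC-condensed notation. The data come from 3228 arrays in the Consortium for Functional Glycomics database, limited to those with an available protein sequence. Binding is reported as a within-array Z-score averaged across arrays of one protein sequence and across linkers.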
# [2] = molecular target: GlcNAc(b1-2)Man(a1-3)[GlcNAc(b1-2)Man(a1-6)]Man(b1-4)GlcNAc(b1-4)GlcNAc
# In short: as §1
# [3] = molecular target: GlcNAc(b1-2)Man(a1-3)[GlcNAc(b1-2)Man(a1-6)]Man(b1-4)GlcNAc(b1-4)[Fuc(a1-6)]GlcNAc
# In short: as §1
# [4] = molecular target: GlcNAc(b1-2)Man(a1-3)[GlcNAc(b1-4)][GlcNAc(b1-2)Man(a1-6)]Man(b1-4)GlcNAc(b1-4)GlcNAc
# In short: as §1
# [5] = molecular target: GlcNAc(b1-2)Man(a1-3)[GlcNAc(b1-4)][GlcNAc(b1-2)Man(a1-6)]Man(b1-4)GlcNAc(b1-4)[Fuc(a1-6)]GlcNAc
# In short: as §1
# [6] = molecular target: GlcNAc(b1-2)[GlcNAc(b1-4)]Man(a1-3)[GlcNAc(b1-2)Man(a1-6)]Man(b1-4)GlcNAc(b1-4)GlcNAc
# In short: as §1
# [7] = molecular target: GlcNAc(b1-2)[GlcNAc(b1-4)]Man(a1-3)[GlcNAc(b1-4)][GlcNAc(b1-2)Man(a1-6)]Man(b1-4)GlcNAc(b1-4)GlcNAc
# In short: as §1
# [8] = molecular target: GlcNAc(b1-2)[GlcNAc(b1-4)]Man(a1-3)[GlcNAc(b1-4)][GlcNAc(b1-2)[GlcNAc(b1-6)]Man(a1-6)]Man(b1-4)GlcNAc(b1-4)GlcNAc
# In short: as §1
# [9] = molecular target: GlcNAc(b1-2)[GlcNAc(b1-4)]Man(a1-3)[GlcNAc(b1-4)][GlcNAc(b1-2)[GlcNAc(b1-6)]Man(a1-6)]Man(b1-4)GlcNAc(b1-4)[Fuc(a1-6)]GlcNAc
# In short: as §1
# [10] = molecular target: GlcNAc(b1-2)[GlcNAc(b1-6)]Man(a1-6)[GlcNAc(b1-2)Man(a1-3)]Man(b1-4)GlcNAc(b1-4)GlcNAc
# In short: as §1
# [11] = molecular target: GlcNAc(b1-2)[GlcNAc(b1-6)]Man(a1-6)[GlcNAc(b1-2)Man(a1-3)]Man(b1-4)GlcNAc(b1-4)[Fuc(a1-6)]GlcNAc
# In short: as §1
# [12] = molecular target: GlcNAc(b1-2)[GlcNAc(b1-6)]Man(a1-6)[GlcNAc(b1-4)][GlcNAc(b1-2)Man(a1-3)]Man(b1-4)GlcNAc(b1-4)GlcNAc
# In short: as §1
# [13] = molecular target: GlcNAc(b1-3)Fuc
# In short: as §1
# [14] = molecular target: GlcNAc(b1-3)Gal
# In short: as §1
# [15] = molecular target: GlcNAc(b1-3)Gal(b1-3)GalNAc
# In short: as §1
# [16] = molecular target: GlcNAc(b1-3)Gal(b1-4)Glc
# In short: as §1
# [17] = molecular target: GlcNAc(b1-3)Gal(b1-4)GlcNAc
# In short: as §1
# [18] = molecular target: GlcNAc(b1-3)Gal(b1-4)GlcNAc(b1-2)Man(a1-3)[GlcNAc(b1-3)Gal(b1-4)GlcNAc(b1-2)Man(a1-6)]Man(b1-4)GlcNAc(b1-4)GlcNAc
# In short: as §1
# [19] = molecular target: GlcNAc(b1-3)Gal(b1-4)GlcNAc(b1-2)Man(a1-3)[GlcNAc(b1-3)Gal(b1-4)GlcNAc(b1-2)Man(a1-6)]Man(b1-4)GlcNAc(b1-4)[Fuc(a1-6)]GlcNAc
# In short: as §1
# [20] = molecular target: GlcNAc(b1-3)Gal(b1-4)GlcNAc(b1-2)[GlcNAc(b1-3)Gal(b1-4)GlcNAc(b1-6)]Man(a1-6)[GlcNAc(b1-3)Gal(b1-4)GlcNAc(b1-2)Man(a1-3)]Man(b1-4)GlcNAc(b1-4)GlcNAc
# In short: as §1
# [21] = molecular target: GlcNAc(b1-3)Gal(b1-4)GlcNAc(b1-3)Gal(b1-4)GlcNAc
# In short: as §1
# [22] = molecular target: GlcNAc(b1-3)Gal(b1-4)GlcNAc(b1-3)Gal(b1-4)GlcNAc(b1-2)Man(a1-3)[GlcNAc(b1-3)Gal(b1-4)GlcNAc(b1-3)Gal(b1-4)GlcNAc(b1-2)Man(a1-6)]Man(b1-4)GlcNAc(b1-4)GlcNAc
# In short: as §1
# [23] = molecular target: GlcNAc(b1-3)Gal(b1-4)GlcNAc(b1-3)Gal(b1-4)GlcNAc(b1-2)Man(a1-3)[GlcNAc(b1-3)Gal(b1-4)GlcNAc(b1-3)Gal(b1-4)GlcNAc(b1-2)Man(a1-6)]Man(b1-4)GlcNAc(b1-4)[Fuc(a1-6)]GlcNAc
# In short: as §1
# [24] = molecular target: GlcNAc(b1-3)Gal(b1-4)GlcNAc(b1-3)Gal(b1-4)GlcNAc(b1-2)[GlcNAc(b1-3)Gal(b1-4)GlcNAc(b1-3)Gal(b1-4)GlcNAc(b1-6)]Man(a1-6)[GlcNAc(b1-3)Gal(b1-4)GlcNAc(b1-3)Gal(b1-4)GlcNAc(b1-2)Man(a1-3)]Man(b1-4)GlcNAc(b1-4)[Fuc(a1-6)]GlcNAc
# In short: as §1
# [25] = molecular target: GlcNAc(b1-3)Gal(b1-4)GlcNAc(b1-3)Gal(b1-4)GlcNAc(b1-3)Gal(b1-4)GlcNAc(b1-2)Man(a1-3)[GlcNAc(b1-3)Gal(b1-4)GlcNAc(b1-3)Gal(b1-4)GlcNAc(b1-3)Gal(b1-4)GlcNAc(b1-2)Man(a1-6)]Man(b1-4)GlcNAc(b1-4)GlcNAc
# In short: as §1
# [26] = molecular target: GlcNAc(b1-3)Gal(b1-4)GlcNAc(b1-3)Gal(b1-4)GlcNAc(b1-3)Gal(b1-4)GlcNAc(b1-2)Man(a1-3)[GlcNAc(b1-3)Gal(b1-4)GlcNAc(b1-3)Gal(b1-4)GlcNAc(b1-3)Gal(b1-4)GlcNAc(b1-2)Man(a1-6)]Man(b1-4)GlcNAc(b1-4)[Fuc(a1-6)]GlcNAc
# In short: as §1
# [27] = molecular target: GlcNAc(b1-3)Gal(b1-4)GlcNAc(b1-3)Gal(b1-4)GlcNAc(b1-3)Gal(b1-4)GlcNAc(b1-2)[GlcNAc(b1-3)Gal(b1-4)GlcNAc(b1-3)Gal(b1-4)GlcNAc(b1-3)Gal(b1-4)GlcNAc(b1-6)]Man(a1-6)[GlcNAc(b1-3)Gal(b1-4)GlcNAc(b1-3)Gal(b1-4)GlcNAc(b1-3)Gal(b1-4)GlcNAc(b1-2)Man(a1-3)]Man(b1-4)GlcNAc(b1-4)[Fuc(a1-6)]GlcNAc
# In short: as §1
# [28] = molecular target: GlcNAc(b1-3)Gal(b1-4)GlcNAc(b1-3)Gal(b1-4)GlcNAc(b1-3)Gal(b1-4)GlcNAc(b1-3)Gal(b1-4)GlcNAc(b1-2)Man(a1-3)[GlcNAc(b1-3)Gal(b1-4)GlcNAc(b1-3)Gal(b1-4)GlcNAc(b1-3)Gal(b1-4)GlcNAc(b1-3)Gal(b1-4)GlcNAc(b1-2)Man(a1-6)]Man(b1-4)GlcNAc(b1-4)GlcNAc
# In short: as §1
# [29] = molecular target: GlcNAc(b1-3)Gal(b1-4)GlcNAc(b1-3)Gal(b1-4)GlcNAc(b1-3)Gal(b1-4)GlcNAc(b1-3)Gal(b1-4)GlcNAc(b1-2)Man(a1-3)[GlcNAc(b1-3)Gal(b1-4)GlcNAc(b1-3)Gal(b1-4)GlcNAc(b1-3)Gal(b1-4)GlcNAc(b1-3)Gal(b1-4)GlcNAc(b1-2)Man(a1-6)]Man(b1-4)GlcNAc(b1-4)[Fuc(a1-6)]GlcNAc
# In short: as §1
# [30] = molecular target: GlcNAc(b1-3)Gal(b1-4)GlcNAc(b1-3)Gal(b1-4)GlcNAc(b1-3)Gal(b1-4)GlcNAc(b1-3)Gal(b1-4)GlcNAc(b1-2)[GlcNAc(b1-3)Gal(b1-4)GlcNAc(b1-3)Gal(b1-4)GlcNAc(b1-3)Gal(b1-4)GlcNAc(b1-3)Gal(b1-4)GlcNAc(b1-6)]Man(a1-6)[GlcNAc(b1-3)Gal(b1-4)GlcNAc(b1-3)Gal(b1-4)GlcNAc(b1-3)Gal(b1-4)GlcNAc(b1-3)Gal(b1-4)GlcNAc(b1-2)Man(a1-3)]Man(b1-4)GlcNAc(b1-4)[Fuc(a1-6)]GlcNAc
# In short: as §1
# [31] = molecular target: GlcNAc(b1-3)Gal(b1-4)GlcNAc(b1-3)Gal(b1-4)GlcNAc(b1-3)GalNAc
# In short: as §1
# [32] = molecular target: GlcNAc(b1-3)Gal(b1-4)GlcNAc(b1-3)GalNAc
# In short: as §1
# [33] = molecular target: GlcNAc(b1-3)Gal(b1-4)GlcNAc(b1-3)[GlcNAc(b1-3)Gal(b1-4)GlcNAc(b1-3)]GalNAc
# In short: as §1
# [34] = molecular target: GlcNAc(b1-3)Gal(b1-4)GlcNAc(b1-6)[Gal(b1-3)]GalNAc
# In short: as §1
# [35] = molecular target: GlcNAc(b1-3)Gal(b1-4)GlcNAc(b1-6)[GlcNAc(b1-3)Gal(b1-3)]GalNAc
# In short: as §1
# [36] = molecular target: GlcNAc(b1-3)Gal(b1-4)GlcNAc(b1-6)[GlcNAc(b1-3)]Gal(b1-4)GlcNAc
# In short: as §1
# [37] = molecular target: GlcNAc(b1-3)GalNAc
# In short: as §1
binder,measurement,setting,value
B1,glycan array binding signal (z-score),[1],-0.1
same,glycan array binding signal (z-score),[2],-0.215
same,glycan array binding signal (z-score),[3],-0.094
same,glycan array binding signal (z-score),[4],-0.166
same,glycan array binding signal (z-score),[5],-0.345
same,glycan array binding signal (z-score),[6],-0.409
same,glycan array binding signal (z-score),[7],-0.534
same,glycan array binding signal (z-score),[8],-0.406
same,glycan array binding signal (z-score),[9],-0.752
same,glycan array binding signal (z-score),[10],-0.845
same,glycan array binding signal (z-score),[11],-0.505
same,glycan array binding signal (z-score),[12],-0.577
same,glycan array binding signal (z-score),[13],0.1
same,glycan array binding signal (z-score),[14],-0.688
same,glycan array binding signal (z-score),[15],-0.471
same,glycan array binding signal (z-score),[16],0.258
same,glycan array binding signal (z-score),[17],-0.125
same,glycan array binding signal (z-score),[18],-0.684
same,glycan array binding signal (z-score),[19],0.036
same,glycan array binding signal (z-score),[20],0.272
same,glycan array binding signal (z-score),[21],-0.252
same,glycan array binding signal (z-score),[22],0.124
same,glycan array binding signal (z-score),[23],-0.089
same,glycan array binding signal (z-score),[24],-0.222
same,glycan array binding signal (z-score),[25],0.265
same,glycan array binding signal (z-score),[26],-0.653
same,glycan array binding signal (z-score),[27],-0.191
same,glycan array binding signal (z-score),[28],-0.293
same,glycan array binding signal (z-score),[29],-0.384
same,glycan array binding signal (z-score),[30],0.478
same,glycan array binding signal (z-score),[31],0.801
same,glycan array binding signal (z-score),[32],0.061
same,glycan array binding signal (z-score),[33],-0.198
same,glycan array binding signal (z-score),[34],-0.34
same,glycan array binding signal (z-score),[35],-0.084
same,glycan array binding signal (z-score),[36],0.333
same,glycan array binding signal (z-score),[37],-0.512

# Taken from the results shown (3 entries):
binder,measurement,setting,value
B1,glycan array binding signal (z-score),[31],0.801
same,glycan array binding signal (z-score),[32],0.061
same,glycan array binding signal (z-score),[33],-0.198
